Test results published in the supplement of paper PMC12823440, “Inhibitors supercharge kinase turnover through native proteolytic circuits” (Nature, 2025).
Some of the results follow. Hit calls seldom repeat between salt and free forms of one compound.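 Kinases, fused to nanoluciferase, were expressed in K562 cells; luminescence was measured every 4 h from 2 to 18 h as percent of control (DMSO = 100%, positive control = 0%). A time point is decreased if signal falls significantly (2 sigma). Hits were called by the authors by a rule that is not shown; the count of time points alone does not decide it.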

Protein sequences, listed by entry. Tags and fused reporters are not part of them. Lines headed by an entry give the natural chain unless they say otherwise; changes in a name come on top.
UniProt P42356, whole entry, looked up: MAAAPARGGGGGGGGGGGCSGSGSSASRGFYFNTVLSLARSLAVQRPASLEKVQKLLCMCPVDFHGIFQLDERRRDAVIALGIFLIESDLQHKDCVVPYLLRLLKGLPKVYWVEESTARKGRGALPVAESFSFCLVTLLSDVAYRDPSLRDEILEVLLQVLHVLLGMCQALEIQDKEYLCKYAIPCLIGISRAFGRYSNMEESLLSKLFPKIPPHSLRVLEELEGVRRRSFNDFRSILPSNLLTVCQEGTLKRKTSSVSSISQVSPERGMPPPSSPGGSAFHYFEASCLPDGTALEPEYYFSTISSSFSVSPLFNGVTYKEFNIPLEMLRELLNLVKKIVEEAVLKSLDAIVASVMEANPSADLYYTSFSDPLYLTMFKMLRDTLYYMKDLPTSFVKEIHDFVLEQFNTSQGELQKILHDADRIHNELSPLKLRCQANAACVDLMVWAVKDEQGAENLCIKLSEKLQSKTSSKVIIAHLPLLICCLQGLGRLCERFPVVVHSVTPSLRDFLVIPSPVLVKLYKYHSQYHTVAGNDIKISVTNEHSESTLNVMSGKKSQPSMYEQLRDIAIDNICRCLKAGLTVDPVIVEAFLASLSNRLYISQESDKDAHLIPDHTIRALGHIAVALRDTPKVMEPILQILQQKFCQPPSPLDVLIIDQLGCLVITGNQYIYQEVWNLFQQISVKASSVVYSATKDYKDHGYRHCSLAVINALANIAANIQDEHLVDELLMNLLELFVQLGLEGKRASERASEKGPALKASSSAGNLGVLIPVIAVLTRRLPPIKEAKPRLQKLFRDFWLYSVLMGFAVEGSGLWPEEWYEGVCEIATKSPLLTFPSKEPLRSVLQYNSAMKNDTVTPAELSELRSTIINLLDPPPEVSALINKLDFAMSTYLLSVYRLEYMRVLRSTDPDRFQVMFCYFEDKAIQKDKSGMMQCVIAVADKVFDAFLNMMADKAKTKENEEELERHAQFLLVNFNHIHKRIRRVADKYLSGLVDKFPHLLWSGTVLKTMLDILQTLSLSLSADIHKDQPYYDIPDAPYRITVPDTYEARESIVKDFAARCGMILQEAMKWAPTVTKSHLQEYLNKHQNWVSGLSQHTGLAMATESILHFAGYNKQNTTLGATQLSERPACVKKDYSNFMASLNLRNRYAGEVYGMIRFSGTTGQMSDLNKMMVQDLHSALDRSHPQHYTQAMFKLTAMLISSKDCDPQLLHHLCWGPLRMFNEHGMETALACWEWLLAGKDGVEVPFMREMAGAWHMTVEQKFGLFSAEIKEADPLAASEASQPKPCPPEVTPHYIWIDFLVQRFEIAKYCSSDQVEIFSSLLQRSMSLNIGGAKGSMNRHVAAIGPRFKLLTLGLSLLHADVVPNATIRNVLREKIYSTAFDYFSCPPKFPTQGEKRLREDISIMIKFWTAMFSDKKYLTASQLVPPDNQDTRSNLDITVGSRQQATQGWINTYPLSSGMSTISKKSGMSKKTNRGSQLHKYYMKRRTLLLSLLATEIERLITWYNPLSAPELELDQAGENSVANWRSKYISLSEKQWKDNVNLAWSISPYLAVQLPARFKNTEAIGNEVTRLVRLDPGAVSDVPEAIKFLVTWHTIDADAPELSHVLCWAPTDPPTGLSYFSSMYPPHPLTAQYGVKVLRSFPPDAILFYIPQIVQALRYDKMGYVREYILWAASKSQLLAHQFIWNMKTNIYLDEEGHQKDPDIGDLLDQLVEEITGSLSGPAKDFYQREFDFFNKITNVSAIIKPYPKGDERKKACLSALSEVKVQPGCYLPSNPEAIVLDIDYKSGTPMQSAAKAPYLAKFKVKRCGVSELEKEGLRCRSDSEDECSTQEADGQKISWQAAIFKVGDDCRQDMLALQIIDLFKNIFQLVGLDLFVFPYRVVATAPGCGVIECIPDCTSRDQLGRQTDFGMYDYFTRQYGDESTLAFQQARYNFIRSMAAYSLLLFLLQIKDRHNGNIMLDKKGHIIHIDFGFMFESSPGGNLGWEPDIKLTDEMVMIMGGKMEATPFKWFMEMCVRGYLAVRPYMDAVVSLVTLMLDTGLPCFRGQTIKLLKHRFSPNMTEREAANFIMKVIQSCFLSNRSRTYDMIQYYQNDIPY
UniProt Q9UBF8: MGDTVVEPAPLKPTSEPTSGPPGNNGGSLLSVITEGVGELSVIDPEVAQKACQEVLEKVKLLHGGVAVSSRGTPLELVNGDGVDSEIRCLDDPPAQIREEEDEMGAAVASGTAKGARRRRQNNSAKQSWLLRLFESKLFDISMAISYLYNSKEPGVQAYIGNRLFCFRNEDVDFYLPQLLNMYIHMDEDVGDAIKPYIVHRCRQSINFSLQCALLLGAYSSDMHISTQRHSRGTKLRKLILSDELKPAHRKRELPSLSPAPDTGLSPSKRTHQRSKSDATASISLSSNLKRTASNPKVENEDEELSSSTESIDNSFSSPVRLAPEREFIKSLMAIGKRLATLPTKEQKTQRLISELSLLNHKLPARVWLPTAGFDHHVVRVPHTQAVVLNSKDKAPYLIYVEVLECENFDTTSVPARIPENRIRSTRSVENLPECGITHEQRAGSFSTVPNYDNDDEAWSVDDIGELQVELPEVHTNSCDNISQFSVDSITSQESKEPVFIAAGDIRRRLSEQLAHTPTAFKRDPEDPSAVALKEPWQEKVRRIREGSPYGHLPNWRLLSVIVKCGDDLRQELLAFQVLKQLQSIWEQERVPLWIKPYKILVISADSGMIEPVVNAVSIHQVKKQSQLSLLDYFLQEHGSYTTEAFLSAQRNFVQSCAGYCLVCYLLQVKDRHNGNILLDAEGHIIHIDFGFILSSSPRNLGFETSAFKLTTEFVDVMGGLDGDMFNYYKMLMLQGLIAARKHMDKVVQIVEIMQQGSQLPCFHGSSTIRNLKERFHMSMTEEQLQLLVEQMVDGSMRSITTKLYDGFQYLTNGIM
UniProt P53350, whole entry: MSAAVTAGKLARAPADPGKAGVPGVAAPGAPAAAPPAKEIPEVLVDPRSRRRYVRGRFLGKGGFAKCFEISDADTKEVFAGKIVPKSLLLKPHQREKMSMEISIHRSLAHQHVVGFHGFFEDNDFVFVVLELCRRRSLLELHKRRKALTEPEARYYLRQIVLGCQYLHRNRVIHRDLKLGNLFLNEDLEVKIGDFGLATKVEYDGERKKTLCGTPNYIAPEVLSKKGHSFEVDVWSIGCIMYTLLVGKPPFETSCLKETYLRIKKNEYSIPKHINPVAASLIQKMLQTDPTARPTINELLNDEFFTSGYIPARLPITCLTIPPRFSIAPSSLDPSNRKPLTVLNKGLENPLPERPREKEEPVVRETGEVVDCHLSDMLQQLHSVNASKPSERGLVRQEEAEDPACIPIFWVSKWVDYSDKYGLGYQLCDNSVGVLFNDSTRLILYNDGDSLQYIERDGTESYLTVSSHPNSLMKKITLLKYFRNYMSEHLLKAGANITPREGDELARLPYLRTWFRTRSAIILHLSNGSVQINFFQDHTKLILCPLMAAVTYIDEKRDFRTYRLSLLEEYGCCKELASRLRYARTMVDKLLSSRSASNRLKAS
UniProt Q13131: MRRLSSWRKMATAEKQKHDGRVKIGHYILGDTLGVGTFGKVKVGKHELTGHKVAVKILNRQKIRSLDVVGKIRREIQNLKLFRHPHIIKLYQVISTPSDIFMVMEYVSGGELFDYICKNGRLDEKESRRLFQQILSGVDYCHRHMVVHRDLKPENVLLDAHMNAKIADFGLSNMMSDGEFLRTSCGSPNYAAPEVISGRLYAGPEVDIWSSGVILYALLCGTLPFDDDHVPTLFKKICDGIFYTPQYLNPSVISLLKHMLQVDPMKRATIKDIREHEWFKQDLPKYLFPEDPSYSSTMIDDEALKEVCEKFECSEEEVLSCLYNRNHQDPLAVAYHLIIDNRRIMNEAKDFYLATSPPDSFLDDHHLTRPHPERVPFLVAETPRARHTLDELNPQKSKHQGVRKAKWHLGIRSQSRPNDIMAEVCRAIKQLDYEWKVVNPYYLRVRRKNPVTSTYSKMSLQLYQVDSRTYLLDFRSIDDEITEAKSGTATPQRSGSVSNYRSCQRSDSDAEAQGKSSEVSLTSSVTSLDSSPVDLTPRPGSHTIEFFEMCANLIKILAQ
UniProt Q05397, whole entry, looked up: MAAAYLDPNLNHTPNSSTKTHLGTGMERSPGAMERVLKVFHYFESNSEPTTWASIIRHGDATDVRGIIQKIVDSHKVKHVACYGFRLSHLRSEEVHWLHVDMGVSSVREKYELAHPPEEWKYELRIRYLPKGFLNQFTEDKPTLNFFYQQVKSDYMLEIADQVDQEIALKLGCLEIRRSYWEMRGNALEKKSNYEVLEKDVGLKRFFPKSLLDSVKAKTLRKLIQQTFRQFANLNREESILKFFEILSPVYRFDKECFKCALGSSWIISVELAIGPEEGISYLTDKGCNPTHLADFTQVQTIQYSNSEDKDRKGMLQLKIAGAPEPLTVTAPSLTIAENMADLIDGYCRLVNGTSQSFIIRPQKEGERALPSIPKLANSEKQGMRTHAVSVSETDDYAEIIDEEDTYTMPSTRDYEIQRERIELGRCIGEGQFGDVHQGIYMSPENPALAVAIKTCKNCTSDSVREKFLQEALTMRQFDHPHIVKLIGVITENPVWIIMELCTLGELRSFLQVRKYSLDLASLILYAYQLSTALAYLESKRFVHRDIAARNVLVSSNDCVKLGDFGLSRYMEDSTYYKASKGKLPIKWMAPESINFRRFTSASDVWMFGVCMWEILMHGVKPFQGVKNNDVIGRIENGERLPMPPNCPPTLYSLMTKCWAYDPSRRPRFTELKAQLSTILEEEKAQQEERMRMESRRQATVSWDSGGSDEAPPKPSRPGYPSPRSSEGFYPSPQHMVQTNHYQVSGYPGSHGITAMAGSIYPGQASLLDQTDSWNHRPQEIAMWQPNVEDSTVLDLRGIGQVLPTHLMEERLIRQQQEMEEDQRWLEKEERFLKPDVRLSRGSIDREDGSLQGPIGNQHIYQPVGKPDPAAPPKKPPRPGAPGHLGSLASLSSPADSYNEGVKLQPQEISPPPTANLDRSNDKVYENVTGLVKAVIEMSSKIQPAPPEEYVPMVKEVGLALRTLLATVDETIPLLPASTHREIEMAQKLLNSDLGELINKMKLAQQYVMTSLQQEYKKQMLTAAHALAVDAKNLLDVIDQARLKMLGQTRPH
UniProt Q14289, whole entry, looked up: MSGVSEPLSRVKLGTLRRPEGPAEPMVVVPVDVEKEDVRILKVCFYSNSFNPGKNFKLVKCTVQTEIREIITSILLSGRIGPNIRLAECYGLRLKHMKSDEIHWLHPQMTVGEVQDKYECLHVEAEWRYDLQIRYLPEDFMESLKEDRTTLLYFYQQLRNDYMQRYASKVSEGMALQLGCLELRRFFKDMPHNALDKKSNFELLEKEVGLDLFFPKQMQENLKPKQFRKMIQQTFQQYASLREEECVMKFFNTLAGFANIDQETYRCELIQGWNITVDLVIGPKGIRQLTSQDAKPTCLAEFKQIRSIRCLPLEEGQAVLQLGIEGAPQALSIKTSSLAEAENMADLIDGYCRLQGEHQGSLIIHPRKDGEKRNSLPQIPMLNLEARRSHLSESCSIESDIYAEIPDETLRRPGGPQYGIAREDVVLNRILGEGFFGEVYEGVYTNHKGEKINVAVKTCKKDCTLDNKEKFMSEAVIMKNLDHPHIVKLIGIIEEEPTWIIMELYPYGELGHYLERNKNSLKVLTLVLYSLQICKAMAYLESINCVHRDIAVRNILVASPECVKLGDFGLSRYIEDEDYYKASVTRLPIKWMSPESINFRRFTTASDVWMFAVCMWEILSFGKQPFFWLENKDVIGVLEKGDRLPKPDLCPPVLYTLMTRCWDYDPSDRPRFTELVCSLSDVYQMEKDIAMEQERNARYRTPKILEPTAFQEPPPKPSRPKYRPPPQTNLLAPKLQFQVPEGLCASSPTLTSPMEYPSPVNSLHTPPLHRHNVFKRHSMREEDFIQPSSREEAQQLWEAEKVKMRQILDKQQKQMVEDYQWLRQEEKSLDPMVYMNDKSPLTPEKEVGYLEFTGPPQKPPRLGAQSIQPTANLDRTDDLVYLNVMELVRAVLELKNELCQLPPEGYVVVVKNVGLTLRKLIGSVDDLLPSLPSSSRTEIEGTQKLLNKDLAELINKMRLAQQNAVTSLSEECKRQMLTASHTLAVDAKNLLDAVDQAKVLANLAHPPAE

Experiments:
Test in all cases: kinase-Nluc reporter destabilization hit call (1 = scored as downregulated) (binary); higher = compound decreases kinase abundance
Conditions in all cases: K562; 2-18 h
PDPK1 = PDPK1 (UniProt O15530)
PIK4CA = PIK4CA (UniProt P42356)
PIK4CB = PIK4CB (UniProt Q9UBF8)
PLK1 = PLK1 (UniProt P53350)
PRKAA1 = PRKAA1 (UniProt Q13131)
PRKCA = PRKCA (UniProt P17252)
PTK2 = PTK2 (UniProt Q05397)
PTK2B = PTK2B (UniProt Q14289)
RAF1 = RAF1 (UniProt P04049)
[1] = target: RAF1_S257L (clone: RAF1_mut) (UniProt P04049)

Measured: kinase-Nluc reporter destabilization hit call

Cc1cc(Nc2cc(CN3CCOCC3)c3nc(C)c(Cc4ccc(Cl)cc4F)n3n2)n[nH]1 [Gandotinib] (2.5 µM)
inactive: PDPK1 = 0 | PIK4CA 0 | PIK4CB 0 | PLK1 = 0 | PRKAA1 = 0 | PRKCA 0 | PTK2 = 0 | PTK2B 0 | RAF1 = 0 | [1] 0

CCn1nc(C2CCN(C(=O)CCO)CC2)nc1-c1cnc(N)c(-c2nnc(C(C)(C)C)o2)n1 (10 µM)
inactive: PDPK1 = 0 | PIK4CA 0 | PIK4CB 0 | PLK1 = 0 | PRKAA1 = 0 | PRKCA 0 | PTK2 = 0 | PTK2B 0 | RAF1 = 0 | [1] 0

CC[C@@H]1C(=O)N(C)c2cnc(Nc3ccc(C(=O)N[C@H]4CC[C@H](N5CCN(CC6CC6)CC5)CC4)cc3OC)nc2N1C(C)C [Volasertib] (2.5 µM)
inactive: PDPK1 = 0 | PIK4CA 0 | PIK4CB 0 | PLK1 = 0 | PRKAA1 = 0 | PRKCA 0 | PTK2 = 0 | PTK2B 0 | RAF1 = 0 | [1] 0

C[C@@H]1COCCN1c1cc(C2([S@](C)(=N)=O)CC2)nc(-c2cc[nH]c3nccc2-3)n1 [Ceralasertib] (2.5 µM)
inactive: PDPK1 = 0 | PIK4CA 0 | PIK4CB 0 | PLK1 = 0 | PRKAA1 = 0 | PRKCA 0 | PTK2 = 0 | PTK2B 0 | RAF1 = 0 | [1] 0

CCN1/C(=C/C(C)=O)Sc2ccc(OC)cc21 (10 µM)
inactive: PDPK1 = 0 | PIK4CA 0 | PIK4CB 0 | PLK1 = 0 | PRKAA1 = 0 | PRKCA 0 | PTK2 = 0 | PTK2B 0 | RAF1 = 0 | [1] 0

COc1ccc(-n2c(C)c([N+](=O)[O-])c3ccc(O)cc32)cc1 (10 µM)
active: PRKAA1 = 1
inactive: PDPK1 = 0 | PIK4CA 0 | PIK4CB 0 | PLK1 = 0 | PRKCA 0 | PTK2 = 0 | PTK2B 0 | RAF1 = 0 | [1] 0

CC1=C(C(=O)Nc2ccc3[nH]ncc3c2)C(c2ccc(F)cc2)NC(=O)N1 (stereo not given) (10 µM)
inactive: PDPK1 = 0 | PIK4CA 0 | PIK4CB 0 | PLK1 = 0 | PRKAA1 = 0 | PRKCA 0 | PTK2 = 0 | PTK2B 0 | RAF1 = 0 | [1] 0

CN1C(=O)NC(Cc2c[nH]c3c(Cl)cccc23)C1=O (racemic) [Necrostatin 2 (racemate)] (10 µM)
inactive: PDPK1 = 0 | PIK4CA 0 | PIK4CB 0 | PLK1 = 0 | PRKAA1 = 0 | PRKCA 0 | PTK2 = 0 | PTK2B 0 | RAF1 = 0 | [1] 0

CC(C)c1cnn2c(NCc3ccccc3-n3cccn3)nc(OC3CCCNC3)nc12 (stereo not given) (2.5 µM)
inactive: PDPK1 = 0 | PIK4CA 0 | PIK4CB 0 | PLK1 = 0 | PRKAA1 = 0 | PRKCA 0 | PTK2 = 0 | PTK2B 0 | RAF1 = 0 | [1] 0

CC(C)(C)Cn1c(N)nc2ccc(-c3[nH]c(C(C)(C)C)nc3-c3ccc(F)cc3)nc21 [Ralimetinib dimesylate] (2.5 µM)
inactive: PDPK1 = 0 | PIK4CA 0 | PIK4CB 0 | PLK1 = 0 | PRKAA1 = 0 | PRKCA 0 | PTK2 = 0 | PTK2B 0 | RAF1 = 0 | [1] 0

CN(C)Cc1cccc(N=C(c2ccccc2)c2c(O)[nH]c3cc(C(N)=O)ccc23)c1 (10 µM)
inactive: PDPK1 = 0 | PIK4CA 0 | PIK4CB 0 | PLK1 = 0 | PRKAA1 = 0 | PRKCA 0 | PTK2 = 0 | PTK2B 0 | RAF1 = 0 | [1] 0

CCN(C)C(=O)c1ccc2c(C(=Nc3ccc(CN4CCCCC4)cc3)c3ccccc3)c(O)[nH]c2c1 (2.5 µM)
inactive: PDPK1 = 0 | PIK4CA 0 | PIK4CB 0 | PLK1 = 0 | PRKAA1 = 0 | PRKCA 0 | PTK2 = 0 | PTK2B 0 | RAF1 = 0 | [1] 0

C[C@@H]1O[C@@H](OC[C@H]2O[C@@H](Oc3cc(O)c4c(c3)O[C@H](c3ccc(O)cc3)CC4=O)[C@H](O)[C@@H](O)[C@@H]2O)[C@H](O)[C@H](O)[C@H]1O [Narirutin] (10 µM)
inactive: PDPK1 = 0 | PIK4CA 0 | PIK4CB 0 | PLK1 = 0 | PRKAA1 = 0 | PRKCA 0 | PTK2 = 0 | PTK2B 0 | RAF1 = 0 | [1] 0

COC1(C(=O)N[C@@H](C)c2ccc(-n3cc(F)cn3)nc2)CCC(c2nc(C)cc(Nc3cc(C)[nH]n3)n2)CC1 (stereo partly drawn) [trans-Pralsetinib] (2.5 µM)
inactive: PDPK1 = 0 | PIK4CA 0 | PIK4CB 0 | PLK1 = 0 | PRKAA1 = 0 | PRKCA 0 | PTK2 = 0 | PTK2B 0 | RAF1 = 0 | [1] 0

O=C(Nc1ccc(Cl)cc1)C1CCCN(C(=O)c2cccc(-c3ccco3)c2)C1 (stereo not given) (2.5 µM)
inactive: PDPK1 = 0 | PIK4CA 0 | PIK4CB 0 | PLK1 = 0 | PRKAA1 = 0 | PRKCA 0 | PTK2 = 0 | PTK2B 0 | RAF1 = 0 | [1] 0

O=c1[nH]ccc2cc(OC3CCNCC3)ccc12 (10 µM)
inactive: PDPK1 = 0 | PIK4CA 0 | PIK4CB 0 | PLK1 = 0 | PRKAA1 = 0 | PRKCA 0 | PTK2 = 0 | PTK2B 0 | RAF1 = 0 | [1] 0

O=C(c1ccc(Nc2nccc(-c3cc4ccccc4s3)n2)cc1)N1CCC(N2CCCC2)CC1 (2.5 µM)
inactive: PDPK1 = 0 | PIK4CA 0 | PIK4CB 0 | PLK1 = 0 | PRKAA1 = 0 | PRKCA 0 | PTK2 = 0 | PTK2B 0 | RAF1 = 0 | [1] 0

CCCC(=O)Nc1nc2c(ncn2[C@@H]2O[C@@H]3COP(=O)(O)O[C@H]3[C@H]2OC(=O)CCC)c(=O)[nH]1 [Dibutyryl-cGMP (sodium)] (10 µM)
inactive: PDPK1 = 0 | PIK4CA 0 | PIK4CB 0 | PLK1 = 0 | PRKAA1 = 0 | PRKCA 0 | PTK2 = 0 | PTK2B 0 | RAF1 = 0 | [1] 0

Cc1cc2cc(Oc3ccnc(Nc4cccc(CS(=O)(=O)NCCN(C)C)c4)n3)ccc2[nH]1 [Sulfatinib] (10 µM)
inactive: PDPK1 = 0 | PIK4CA 0 | PIK4CB 0 | PLK1 = 0 | PRKAA1 = 0 | PRKCA 0 | PTK2 = 0 | PTK2B 0 | RAF1 = 0
active: [1] 1

COc1ccc(CNc2nc(N(CCO)CCO)nc3c2ncn3C(C)C)cc1 (2.5 µM)
inactive: PDPK1 = 0 | PIK4CA 0 | PIK4CB 0 | PLK1 = 0 | PRKAA1 = 0 | PRKCA 0 | PTK2 = 0 | PTK2B 0 | RAF1 = 0 | [1] 0

COc1ccc2c(c1)c(C1=C(c3c[nH]c4ccccc34)C(=O)NC1=O)cn2CCCN(C)C (10 µM)
inactive: PDPK1 = 0 | PIK4CA 0 | PIK4CB 0 | PLK1 = 0 | PRKAA1 = 0 | PRKCA 0 | PTK2 = 0 | PTK2B 0 | RAF1 = 0 | [1] 0

[O-][n+]1cccc(-c2nc3c(Cl)cccc3cc2[C@@H](Nc2ncnc3cccnc23)C(F)(F)F)c1 [Seletalisib] (10 µM)
inactive: PDPK1 = 0 | PIK4CA 0 | PIK4CB 0 | PLK1 = 0 | PRKAA1 = 0 | PRKCA 0 | PTK2 = 0 | PTK2B 0 | RAF1 = 0 | [1] 0

C[C@@H]1C[C@H]2O[C@@]3(O[C@@H]2C(C)(C)O)[C@H](O)[C@@]2(C)[C@@H]4CC[C@H]5C(C)(C)[C@@H](O[C@@H]6OC[C@H](O)[C@H](O)[C@H]6O)CC[C@@]56C[C@@]46CC[C@]2(C)[C@@H]13 [Cimiracemoside C] (10 µM)
inactive: PDPK1 = 0 | PIK4CA 0 | PIK4CB 0 | PLK1 = 0 | PRKAA1 = 0 | PRKCA 0 | PTK2 = 0 | PTK2B 0 | RAF1 = 0 | [1] 0

CN(C)Cc1cccc(N=C(c2ccccc2)c2c(O)[nH]c3cc(C(=O)N(C)C)ccc23)c1 (10 µM)
inactive: PDPK1 = 0 | PIK4CA 0 | PIK4CB 0 | PLK1 = 0 | PRKAA1 = 0 | PRKCA 0 | PTK2 = 0 | PTK2B 0 | RAF1 = 0 | [1] 0

CCc1cccc(CC)c1NC(=O)c1nn(C)c2c1CCc1cnc(Nc3ccc(C(=O)NC4CCN(C)CC4)cc3OC(F)(F)F)nc1-2 (2 µM)
inactive: PDPK1 = 0 | PIK4CA 0 | PIK4CB 0 | PLK1 = 0 | PRKAA1 = 0 | PRKCA 0 | PTK2 = 0 | PTK2B 0 | RAF1 = 0 | [1] 0

Some of these compounds in order of SMILES length, falling:
CCc1cccc(CC)c1NC(=O)c1nn(C)c2c1CCc1cnc(Nc3ccc(C(=O)NC4CCN(C)CC4)cc3OC(F)(F)F)nc1-2 (2 µM)
inactive: PDPK1 = 0 | PIK4CA 0 | PIK4CB 0 | PLK1 = 0 | PRKAA1 = 0 | PRKCA 0 | PTK2 = 0 | PTK2B 0 | RAF1 = 0 | [1] 0

[O-][n+]1cccc(-c2nc3c(Cl)cccc3cc2[C@@H](Nc2ncnc3cccnc23)C(F)(F)F)c1 [Seletalisib] (10 µM)
inactive: PDPK1 = 0 | PIK4CA 0 | PIK4CB 0 | PLK1 = 0 | PRKAA1 = 0 | PRKCA 0 | PTK2 = 0 | PTK2B 0 | RAF1 = 0 | [1] 0

CN(C)Cc1cccc(N=C(c2ccccc2)c2c(O)[nH]c3cc(C(=O)N(C)C)ccc23)c1 (10 µM)
inactive: PDPK1 = 0 | PIK4CA 0 | PIK4CB 0 | PLK1 = 0 | PRKAA1 = 0 | PRKCA 0 | PTK2 = 0 | PTK2B 0 | RAF1 = 0 | [1] 0

Remaining list, next part:

COc1ccc(CCNc2ncc3c(=O)n(-c4cccc(F)c4)c(=O)[nH]c3n2)cc1OC (2 µM)
inactive: PDPK1 = 0 | PIK4CA 0 | PIK4CB 0 | PLK1 = 0 | PRKAA1 = 0 | PRKCA 0 | PTK2 = 0 | PTK2B 0 | RAF1 = 0 | [1] 0

O=C1NC(=O)C(=Cc2ccc3c(c2)OCO3)S1 (10 µM)
inactive: PDPK1 = 0 | PIK4CA 0 | PIK4CB 0 | PLK1 = 0 | PRKAA1 = 0 | PRKCA 0 | PTK2 = 0 | PTK2B 0 | RAF1 = 0 | [1] 0
